experiment: peptide synthesis; conditions: late stage modification step

Substance | step yield
BHALys[Lys]2[Lys]4[(α-NH2·TFA)4(ε-NH2·TFA)4] | 101%
BHALys[Lys]2[Lys]4[Lys]8[Lys]16[(α-NH2·TFA)16(ε-NH2·TFA)16] | 100%
BHALys[Lys]2[Lys]4[Lys]8[(α-NH2·TFA)8(ε-NH2·TFA)8] | 100%

From patent US20230263900A1 (priority 2020, published 2023)
